The record followed here is paper PMC8327350, “Interaction between the transmembrane domains of neurotrophin receptors p75 and TrkA mediates their reciprocal activation” (The Journal of Biological Chemistry, 2021).

For experiment [1], the target named is T1, p75-TM-C257A (C257A point mutant form of p75TM) (human).
T1 sequence (chain, 15N-labeled in one set of titrations, unlabeled in the other): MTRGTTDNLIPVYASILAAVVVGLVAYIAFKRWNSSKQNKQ
Nature of the experiment: NMR titration; unlabeled TrkA-TM added incrementally to 0.4 mM 15N-labeled p75-C257A-TM; DPC micelles, LPR 80, pH 5.9, 318 K, 20 mM sodium phosphate; both purified.

For another experiment, the target named is human TrkA-TM (human). Nature of the experiment: NMR titration; unlabeled p75-TM-C257A added incrementally to 0.5 mM 15N-labeled TrkA-TM; DPC micelles, LPR 80, pH 5.9, 318 K, 20 mM sodium phosphate; both purified.

These are yes or no findings as the source states them, for the method shown. Some entries that bind do so weakly or less than the wild type.

B1: human TrkA-TM (domain or fragment)
chain: MKKDETPFGVSVAVGLAVFACLFLSTLLLVLNKAGRRNK
modifications: 15N-labeled in one set of titrations, unlabeled in the other
Regarding B1, the binding entry in experiment [1] is reported as “binds weakly”.

B2: p75-TM-C257A (C257A point mutant form of p75TM) (domain or fragment)
chain: T1 sequence (chain, 15N-labeled in one set of titrations, unlabeled in the other)
modifications: 15N-labeled in one set of titrations, unlabeled in the other
For the molecule B2, the binding entry in the experiment with human TrkA-TM (human) was “binds weakly”.
